Results taken from the supplement of paper PMC4604168 (melanoma cell lines).
The other results are listed elsewhere or left out. Many values rest on one well or one pass, so single values are uncertain.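 Cells were imaged in 1,536-well plates, and nuclei stained with an antibody against cleaved PARP were counted against all DNA-stained nuclei to give the apoptosis fraction. Screening doses were chosen to leave most cells alive, and resting and induced cleaved-PARP levels differ strongly between cell lines.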

Tests used:
Test in all cases: cleaved PARP positive nuclei fraction relative to DMSO control; melanoma cells; higher = more apoptosis
Details in all cases: library dose: low library concentration; 72 h
[1] = test system: MZ2-MEL
[2] = test system: MeWo
[3] = test system: RPMI7951
[4] = test system: RVH-421
[5] = test system: SkMel28
[6] = test system: SkMel2
[7] = test system: SkMel30
[8] = test system: SkMel5
[9] = test system: UACC257
[10] = test system: UACC62
[11] = test system: WM115
[12] = test system: WM1716
[13] = test system: WM1745
[14] = test system: WM3526
[15] = test system: WM3619
[16] = test system: WM451Lu

Structure (SMILES)	cleaved PARP positive nuclei fraction [1] [%]	cleaved PARP positive nuclei fraction [2] [%]	cleaved PARP positive nuclei fraction [3] [%]	cleaved PARP positive nuclei fraction [4] [%]	cleaved PARP positive nuclei fraction [5] [%]	cleaved PARP positive nuclei fraction [6] [%]	cleaved PARP positive nuclei fraction [7] [%]	cleaved PARP positive nuclei fraction [8] [%]	cleaved PARP positive nuclei fraction [9] [%]	cleaved PARP positive nuclei fraction [10] [%]	cleaved PARP positive nuclei fraction [11] [%]	cleaved PARP positive nuclei fraction [12] [%]	cleaved PARP positive nuclei fraction [13] [%]	cleaved PARP positive nuclei fraction [14] [%]	cleaved PARP positive nuclei fraction [15] [%]	cleaved PARP positive nuclei fraction [16] [%]
Cc1cn(-c2cc(NC(=O)c3ccc(C)c(Nc4nccc(-c5cccnc5)n4)c3)cc(C(F)(F)F)c2)cn1 [nilotinib] + O=C1NC(=O)/C(=C/c2ccc(-c3ccc(F)cc3O)o2)S1 [AS252424] (first compound 0.2 µM, partner dose 1 µM)	74.9	60.9	164	93.3	137	185	217	66.5	241	106	130	27.2	88.7	309	187	51.7
Cc1cn(-c2cc(NC(=O)c3ccc(C)c(Nc4nccc(-c5cccnc5)n4)c3)cc(C(F)(F)F)c2)cn1 [nilotinib] + COc1ccc2c(c1)CCC1C2CCC2(C)C(NCCCCCCN3C(=O)C=CC3=O)CCC12 [U73122] (first compound 0.2 µM, partner dose 0.4 µM)	82.3	125	717	200	150	63.8	267	60.7	46.5	211	54.7	166	113	131	76.3	66
Cc1ccc(Nc2nccc(N(C)c3ccc4c(C)n(C)nc4c3)n2)cc1S(N)(=O)=O [Pazopanib] + COc1cc2c(Oc3ccc4[nH]c(C)cc4c3F)ncnc2cc1OCCCN1CCCC1 [cediranib] (first compound 0.4 µM, partner dose 0.4 µM)	80	33.2	95.8	74.2	118	29	72.9	71.4	130	78.5	75.8	204	94.5	72.1	106	65
CC[C@]1(O)C[C@H]2CN(CCc3c([nH]c4ccccc34)[C@@](C(=O)OC)(c3cc4c(cc3OC)N(C=O)[C@H]3[C@@](O)(C(=O)OC)[C@H](OC(C)=O)[C@]5(CC)C=CCN6CC[C@]43[C@@H]65)C2)C1 [vincristine] + COc1cc2c(Oc3ccc4[nH]c(C)cc4c3F)ncnc2cc1OCCCN1CCCC1 [cediranib] (first compound 0.0001 µM, partner dose 0.4 µM)	98.6	79.8	153	73	137	32.9	147	71.5	85.7	190	222	185	77.2	353	90.4	252
O=C(/C=C/c1cccnc1)NCCCCC1CCN(C(=O)c2ccccc2)CC1 + NC(=O)Nc1cc(-c2cccc(F)c2)sc1C(=O)N[C@H]1CCCNC1 [AZD7762] (first compound 0.01 µM, partner dose 0.02 µM)	524	82	156	107	62.5	880	64.2	137	33.4	23.4	273	63	107	221	199	50.1
Cc1cn(-c2cc(NC(=O)c3ccc(C)c(Nc4nccc(-c5cccnc5)n4)c3)cc(C(F)(F)F)c2)cn1 [nilotinib] + CC1(C)NC(=O)N(c2ccc([N+](=O)[O-])c(C(F)(F)F)c2)C1=O [nilutamide] (first compound 0.2 µM, partner dose 1 µM)	98.3	54.5	137	346	42.5	69.7	68.5	94.6	96.6	70.1	60.6	70.4	114	180	71.3	75
Cc1cn(-c2cc(NC(=O)c3ccc(C)c(Nc4nccc(-c5cccnc5)n4)c3)cc(C(F)(F)F)c2)cn1 [nilotinib] + CN(NC(=O)CC(=O)NN(C)C(=S)c1ccccc1)C(=S)c1ccccc1 [STA4783] (first compound 0.2 µM, partner dose 0.006 µM)	141	41.1	47.1	85.1	198	58.6	67.6	31.2	134	244	107	176	196	125	155	69
CCCCCCCCCCCCCCCCCCOP(=O)([O-])OC1CC[N+](C)(C)CC1 [Perifosine] + CN(C)S(=O)(=O)c1ccc2c(c1)/C(=C/c1cc3c([nH]1)CCCC3)C(=O)N2 [SU6656] (first compound 0.4 µM, partner dose 0.4 µM)	131	158	110	35	165	95.1	72.8	41.8	82.7	122	53.1	38.1	87.3	207	81.1	72.5
